Results are given in words; binding and its absence hold for the method and conditions named. Some results given as binding are weak or reduced against the parent protein; the word gives no strength.
Biological target: kinase domain of CK1δ (aa. 1-294) (UniProt P48730)
Test: crystal structure

Protein sequences, listed by entry. Tags and fused reporters are not part of them. Lines headed by an entry give the natural chain unless they say otherwise; changes in a name come on top. Residues count along the entry.
UniProt P48730, residues 1-294: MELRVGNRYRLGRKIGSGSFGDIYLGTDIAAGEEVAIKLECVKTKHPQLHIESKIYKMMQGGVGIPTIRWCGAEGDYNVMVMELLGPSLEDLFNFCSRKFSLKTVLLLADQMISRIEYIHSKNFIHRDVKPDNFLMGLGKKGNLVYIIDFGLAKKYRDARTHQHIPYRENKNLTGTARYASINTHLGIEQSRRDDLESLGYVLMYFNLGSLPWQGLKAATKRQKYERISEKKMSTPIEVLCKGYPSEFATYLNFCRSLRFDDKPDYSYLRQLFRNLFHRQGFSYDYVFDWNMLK

Row | Binder | binding
1 | YTPSSASTVSVGSSET (phosphoserine at S582 (4th residue of the printed letters)) [PAD-1P (p63 phosphorylation activation domain peptide, phosphorylated on S582)] | binds
2 | YTPSSASTVSVGSSET (phosphoserine at S582 and S585 (4th and 7th residues of the printed letters)) [PAD-2P (p63 phosphorylation activation domain peptide, phosphorylated on S582 and S585)] | binds
